Data as given in PubChem BioAssay AID602196 (INSERM, 2012)
Purpose: 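Knock-downs that protect lung cancer cells from cisplatin or sensitise them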. Cell system: human A549 lung cancer cells. Knock-down reagent: siRNA pair against human genes. Time to read-out: 48 h transfection before cisplatin; time from cisplatin to read-out not stated. Treatment: cisplatin at a dose killing half of control-siRNA cells; exact dose and duration not given. Measurement: 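Shift in cisplatin death relative to control siRNA, from -50 (all cells die) to +50 (no cells die); siRNAs harmful on their own scored 0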. Scale: two-siRNA summed score (-2 to +2): higher = both siRNAs protect from cisplatin killing; -2 means both sensitise; mean protection from cisplatin (shift in death) and protection from cisplatin (shift in death), siRNA C: higher = protection from cisplatin killing. Hit rule: 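Each siRNA scores 0 if harmful alone by LDH or WST-1, otherwise +1 if it reduces and -1 if it increases cisplatin killing; a gene is active when both siRNAs agree (sum +2 or -2)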. Meaning of the calls: active = both siRNAs shift cisplatin killing the same way; inactive = no consistent shift, or siRNA harmful alone.
In all, the deposit lists about 23,000 reagents; below is a part drawn at random. 455 of all reagents (2%) were called active. 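Active includes both protection and sensitisation; some change values fall well beyond the stated -50 to +50 range.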 A number with no mark means an inactive call. Not all columns of the deposit are shown. Reagent sequences are not shown. Not given: the amount of reagent.

target | two-siRNA summed score (-2 to +2) | mean protection from cisplatin (shift in death) (%) | protection from cisplatin (shift in death), siRNA C (%)
CBR4 | 2 (active) | 19.5 | 22.7
LIMD2 | 0 | 4 | 5.6
TXLNG | 0 | 7.5 | 4.3
CLPTM1 | 1 | 1.7 | 18.3
SLC6A10P | 1 | 21.6 | 27.9
LOC441867 | 0 | 24 | 9.9
CA14 | 0 | -1.4 | 4.8
DNMBP | 0 | 16.8 | 30.8
FLJ25415 | 0 | 10.2 | 16.9

Entries listed so far whose target name starts with C or c (3):
target | two-siRNA summed score (-2 to +2) | mean protection from cisplatin (shift in death) (%) | protection from cisplatin (shift in death), siRNA C (%)
CBR4 | 2 (active) | 19.5 | 22.7
CLPTM1 | 1 | 1.7 | 18.3
CA14 | 0 | -1.4 | 4.8

Further reagents:
target | two-siRNA summed score (-2 to +2) | mean protection from cisplatin (shift in death) (%) | protection from cisplatin (shift in death), siRNA C (%)
HABP2 | 0 | -1.6 | 4.9
SELENOW | 0 | 6.6 | 9.5
INSR | 0 | -1.3 | -3.4
CRYBB2 | 0 | -6.1 | -11.5
LINC00636 | 1 | 6.4 | -1.6
PLEKHA1 | 0 | 5.3 | 4.3
ADAM7 | 0 | 10.8 | 17.8
RB1 | 0 | 1.4 | -8.4
HAPLN2 | 0 | 7.3 | 9.2
ADAM32 | 0 | 2.3 | -3.2
GLP1R | 0 | 2.3 | -1.2
LRRC46 | 1 | 15.9 | 26.7
LOC402677 | 0 | 23.8 | 24.1
YEATS2 | -1 | -14.1 | 2.2
